For some assays here: Strings that start with PEPTIDE1 are HELM notation: dots part the residues, brackets hold end groups and non-standard residues.
Columns and labels:
[1] = general procedure: Fmoc solid-phase peptide synthesis; 2-chlorotrityl chloride resin, hydrazinobenzoyl resin, Rink Amide AM resin or p-nitrophenylcarbonate Wang resin; DIC/HOBt, HATU/DIEA, HBTU/DIEA, TBTU/DIEA, PyBOP/DIEA, BOP/DIEA; conditions: for final HPLC purity: analytical RP-HPLC, Vydac C18, UV detector
[2] = general procedure: Fmoc solid-phase peptide synthesis; p-nitrophenylcarbonate Wang resin; DIC/HOBt, HATU/DIEA, HBTU/DIEA, TBTU/DIEA, PyBOP/DIEA, BOP/DIEA; conditions: whole synthesis, scale 4.4 mmol
[3] = general procedure: Fmoc solid-phase peptide synthesis; Rink Amide AM resin; DIC/HOBt, HATU/DIEA, HBTU/DIEA, TBTU/DIEA, PyBOP/DIEA, BOP/DIEA; conditions: whole synthesis, scale 0.3 mmol
[4] = general procedure: Fmoc solid-phase peptide synthesis; 2-Chlorotrityl chloride resin; DIC/HOBt, HATU/DIEA, HBTU/DIEA, TBTU/DIEA, PyBOP/DIEA, BOP/DIEA; conditions: whole synthesis
[5] = whole synthesis, scale 0.3 mmol
[6] = whole synthesis, scale 0.4 mmol

Substance | final HPLC purity ([1]; whole synthesis) | isolated mass [1, 5] | further results
D-Phe-D-Phe-D-Leu-D-Orn-[4-Amino-1-carboxymethyl-piperidine]-NH2 | 99.7% | 65 mg | –
D-Phe-D-Phe-D-Leu-D-Orn-[4-(4,5-dihydro-1H-imidazol-2-yl)homopiperazine amide] | – | – | final HPLC purity ([1]; late stage modification step): 100%
D-Phe-D-Phe-D-Leu-D-Orn-[(2S,4S)-4-Amino-pyrrolidine-2-carboxylic acid]-OH | 99.5% | 285 mg | –
D-Phe-D-Phe-D-Leu-(-Me)D-Orn-[homopiperazine amide] | – | – | final HPLC purity ([1]; late stage modification step): 99.6%
Cbz-D-Phe-D-Phe-D-Leu-D-Orn(Cbz)-[homopiperazine amide] | – | – | crude mass [2]: 4.4 g
D-Phe-D-Phe-D-Leu-D-Orn-[(2S,4R)-4-Amino-pyrrolidine-2-carboxylic acid]-OH | 99.4% | 294 mg | –
D-Phe-D-Phe-D-Leu-D-Orn-[eLys(D-Orn-D-Leu-H)]-OH | 99.7% | 396 mg | –
D-Phe-D-Phe-D-Leu-D-Orn-[4-(2-aminoethyl)-1-carboxymethyl-piperazine]-NH2 | 99.5% | – | crude mass [3]: 0.1 g
D-Phe-D-Phe-D-Nle-D-Arg-D-Pro-OH | 99.7% | 140 mg | –
D-Phe-D-Phe-D-Leu-D-Orn-[N-(4-piperidinyl)-L-proline]-OH | 100% | – | isolated mass [1, 6]: 18 mg
D-Phe-D-Phe-D-Leu-D-Orn-[4-ethylhomopiperazine amide] | – | – | final HPLC purity ([1]; late stage modification step): 98.4%
D-Phe-D-Phe-D-Leu-D-Orn-[4-Carboxymethyl-piperidine]-OH | 100% | – | isolated mass [1, 6]: 123 mg
PEPTIDE1{[dF].[dF].[dL].[D-Orn].[4-(N-methyl)amidinohomopiperazine]}$$$$V2.0 | – | – | final HPLC purity ([1]; late stage modification step): 99.4%
D-Phe-D-Phe-D-Leu-(δ-iPr)D-Orn-[4-Amidinohomopiperazine amide] | 99.4% | 166 mg | –
D-Phe-D-Phe-D-Leu-D-Orn-[4-Amidinohomopiperazine amide] | – | – | final HPLC purity ([1]; late stage modification step): 98.7%
D-Phe-D-Phe-D-Leu-(6-iPr)D-Orn-[homopiperazine amide] | – | – | final HPLC purity ([1]; late stage modification step): 100%
D-Phe-D-Phe-D-Leu-D-Orn-[4-(4-piperidinyl)-butanoic acid]-OH | 100% | – | isolated mass [1, 6]: 474 mg
D-Phe-D-Phe-D-Leu-D-Orn-[homopiperazine amide] | – | – | final HPLC purity ([1]; late stage modification step): 100%
D-Phe-D-Phe-D-Leu-(δ-Me)D-Orn-[4-Amidinohomopiperazine amide] | 98.9% | 183 mg | –
D-Phe-D-Phe-D-Leu-D-Orn-[4-(2-aminoethyl)-1-carboxymethyl-piperazine]-OH | 100% | – | crude mass ([4]; scale 0.4 mmol): 0.2 g; isolated mass [1, 6]: 101 mg
D-Phe-D-Phe-D-Leu-(δ-iPr)D-Orn-[omega(4-Aminopiperidine-4-carboxylic acid)]-OH | 98.9% | – | isolated mass ([4]; scale 0.8 mmol): 336 mg
D-Phe-D-Phe-D-Leu-D-Orn-[omega(4-Aminopiperidine-4-carboxylic acid)]-OH | 99.7% | 343 mg | –
D-Phe-D-Phe-D-Leu-D-Orn-[N-(4-piperidinyl)-L-proline]-NH2 | 91.7% | 14 mg | –
D-Phe-D-Phe-D-Leu-D-Orn-[Isonipecotic acid]-OH | 99.3% | – | isolated mass [1, 6]: 125 mg
